# Reference: PubChem BioAssay AID1224828 (NIAID, 2016)
# Test: 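Knock-downs that increase or decrease LPS-induced p65 nuclear translocation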 (primary screen)
# Cell system: mouse RAW264.7 G9 macrophage reporter cells (GFP-p65, Tnf promoter-mCherry)
# Reagent: siRNA pool against mouse genes, 100 nM
# Duration: 2 days siRNA transfection, then 40 min LPS before fixation
# Challenge: LPS (Salmonella minnesota R595) at 10 ng/ml
# Measurement: 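Imaged p65 nuclear translocation ratio, normalised to the plate median, converted to robust z-scores and averaged across two replicates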
# Direction: p65 translocation robust z-score: higher = more nuclear NF-kappaB p65 after LPS than the plate median; nuclear/cytoplasmic p65 ratio: higher = more nuclear NF-kappaB p65
# Rule for the call: 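Called active when z exceeds 3.3 or falls under -1.56 (median of Tlr4 controls), giving activity score of at least 50; no calls for control wells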
# Calls: active = hit (p65 shift raised or lowered); inactive = no clear change
# The whole screen tested about 17,000 reagents; below is a part drawn at random. In the full data, 762 (4.5%) got an active call. 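Active calls include both raised and lowered p65 entry, mostly lowered; wells with fewer than 50 cells lack a z-score.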 The raw values are shown without normalisation. Unmarked entries are inactive.
gene,p65 translocation robust z-score,"nuclear/cytoplasmic p65 ratio, rep 1","nuclear/cytoplasmic p65 ratio, rep 2",low cell count flag
Arhgap23,-1.12,0.958,1.31,enough cells to score
Copg1,-1.26,1.38,1.58,enough cells to score
Bcl7c,1.84,1.72,1.73,enough cells to score
Or8k37,-0.82,1.6,1.39,enough cells to score
Polr3d,-0.07,1.43,1.45,enough cells to score
Suco,0.94,1.7,1.88,enough cells to score
Mta3,0.65,1.91,1.67,enough cells to score
Kif21b,0.23,1.55,1.37,enough cells to score
L3mbtl2,0.86,1.61,1.6,enough cells to score
Arhgap5,1.65,1.61,2.11,enough cells to score
Atp5f1c,0.57,1.7,1.7,enough cells to score
Cyp2f2,0.72,1.49,2.11,enough cells to score
Panx3,,1.44,1.3,fewer than 50 cells per well; well left out of scoring
Nfya,1.41,1.7,1.54,enough cells to score
Rnf187,,1.32,1.47,fewer than 50 cells per well; well left out of scoring
Tlr5,0.77,1.47,1.78,enough cells to score
Col4a3,0.72,1.53,1.5,enough cells to score
Muc13,0.33,1.78,1.59,enough cells to score
Cyp2c65,-2.04 (active),1.17,1.14,enough cells to score
Pdcd1,-1.05,1.32,1.2,enough cells to score
Mark1,-1.19,1.5,1.23,enough cells to score
Efcab14,-0.07,1.66,1.55,enough cells to score
5730493B19Rik,1.33,1.47,1.7,enough cells to score
Fam149a,0.77,1.71,1.95,enough cells to score
Sertad4,,1.32,1.27,fewer than 50 cells per well; well left out of scoring
Stac,-0.28,1.57,1.46,enough cells to score
Ccdc32,2.24,1.79,2.05,enough cells to score
Or4p23,0.07,1.67,1.59,enough cells to score
Defb3,0.29,1.59,1.61,enough cells to score
Hs6st1,-2.12 (active),1.5,1.26,enough cells to score
Rpl7l1,0.76,1.59,1.6,enough cells to score
Mrps15,0.31,1.91,1.57,enough cells to score
Fam168a,-0.14,1.44,1.95,enough cells to score
Map7,0.55,1.53,1.39,enough cells to score
Prss29,-0.5,1.5,1.35,enough cells to score
Mtmr6,1.32,1.59,1.54,enough cells to score
Polr3f,0.45,1.2,1.31,enough cells to score
Gemin2,5.52 (active),1.45,3.25,enough cells to score
Rims1,1.29,1.57,1.74,enough cells to score
Dpp10,2.29,1.67,1.93,enough cells to score

Called active, of those listed so far:
gene,p65 translocation robust z-score,"nuclear/cytoplasmic p65 ratio, rep 1","nuclear/cytoplasmic p65 ratio, rep 2",low cell count flag
Cyp2c65,-2.04 (active),1.17,1.14,enough cells to score
Hs6st1,-2.12 (active),1.5,1.26,enough cells to score
Gemin2,5.52 (active),1.45,3.25,enough cells to score
